Here are results for two substances from publication PMC5737659.

Sequences of proteins named here, by UniProt entry; tags and fusion partners are left off. Residues count along the entry.
UniProt Q9Z2W9, residues 23-888: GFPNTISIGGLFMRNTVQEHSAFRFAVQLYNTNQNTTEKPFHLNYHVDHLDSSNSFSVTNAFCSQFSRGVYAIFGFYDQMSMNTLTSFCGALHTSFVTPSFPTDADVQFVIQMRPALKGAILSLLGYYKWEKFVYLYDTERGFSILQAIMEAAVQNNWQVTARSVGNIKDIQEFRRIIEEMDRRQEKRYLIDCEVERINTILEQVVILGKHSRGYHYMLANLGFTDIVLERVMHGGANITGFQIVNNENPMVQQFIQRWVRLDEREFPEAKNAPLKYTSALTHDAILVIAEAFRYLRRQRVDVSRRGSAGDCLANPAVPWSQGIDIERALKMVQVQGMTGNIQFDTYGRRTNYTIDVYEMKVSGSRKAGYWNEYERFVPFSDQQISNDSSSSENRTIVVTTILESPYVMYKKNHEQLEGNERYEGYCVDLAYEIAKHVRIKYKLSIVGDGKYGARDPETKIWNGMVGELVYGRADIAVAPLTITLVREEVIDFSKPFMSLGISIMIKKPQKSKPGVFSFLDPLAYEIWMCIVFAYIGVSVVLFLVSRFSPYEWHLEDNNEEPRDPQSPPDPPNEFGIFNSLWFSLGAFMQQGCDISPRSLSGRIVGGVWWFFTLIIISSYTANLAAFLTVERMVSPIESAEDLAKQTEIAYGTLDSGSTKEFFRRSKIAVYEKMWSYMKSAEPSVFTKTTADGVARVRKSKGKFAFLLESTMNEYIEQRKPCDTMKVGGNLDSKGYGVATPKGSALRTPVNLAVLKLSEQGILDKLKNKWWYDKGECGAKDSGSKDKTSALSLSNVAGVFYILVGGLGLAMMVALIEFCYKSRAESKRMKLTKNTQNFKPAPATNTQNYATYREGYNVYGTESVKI
UniProt P39087, residues 32-908: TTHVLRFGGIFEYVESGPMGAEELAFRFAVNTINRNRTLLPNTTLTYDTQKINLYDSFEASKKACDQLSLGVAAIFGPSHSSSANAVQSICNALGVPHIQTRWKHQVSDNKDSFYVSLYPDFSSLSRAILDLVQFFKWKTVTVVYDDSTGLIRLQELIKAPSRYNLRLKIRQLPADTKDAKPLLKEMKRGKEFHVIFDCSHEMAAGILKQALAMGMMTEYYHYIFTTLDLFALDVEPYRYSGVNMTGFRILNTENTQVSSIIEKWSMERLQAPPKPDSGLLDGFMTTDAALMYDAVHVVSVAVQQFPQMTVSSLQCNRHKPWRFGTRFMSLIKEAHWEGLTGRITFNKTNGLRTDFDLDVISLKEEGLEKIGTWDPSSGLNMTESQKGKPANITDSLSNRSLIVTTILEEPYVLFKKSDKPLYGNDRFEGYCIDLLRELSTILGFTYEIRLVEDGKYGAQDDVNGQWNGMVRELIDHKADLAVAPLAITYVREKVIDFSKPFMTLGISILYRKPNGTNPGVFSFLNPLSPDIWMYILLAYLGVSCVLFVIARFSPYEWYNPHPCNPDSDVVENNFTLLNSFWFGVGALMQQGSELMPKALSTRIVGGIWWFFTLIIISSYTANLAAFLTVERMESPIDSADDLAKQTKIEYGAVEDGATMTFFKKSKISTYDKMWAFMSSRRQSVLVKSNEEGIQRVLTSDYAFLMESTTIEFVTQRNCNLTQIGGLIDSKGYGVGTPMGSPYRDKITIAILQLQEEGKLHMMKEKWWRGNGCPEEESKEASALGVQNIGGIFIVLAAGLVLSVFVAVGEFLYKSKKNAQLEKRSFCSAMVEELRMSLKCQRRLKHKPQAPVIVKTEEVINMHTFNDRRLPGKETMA

These are yes or no findings as the source states them, for the method shown. In cells and extracts the contact can be indirect. Some entries that bind do so weakly or less than the wild type. Tags and fused reporters may be left off the sequences shown.

This experiment addresses T1, Flag-Shisa7 (mouse) (UniProt Q8C3Q5).
T1 sequence: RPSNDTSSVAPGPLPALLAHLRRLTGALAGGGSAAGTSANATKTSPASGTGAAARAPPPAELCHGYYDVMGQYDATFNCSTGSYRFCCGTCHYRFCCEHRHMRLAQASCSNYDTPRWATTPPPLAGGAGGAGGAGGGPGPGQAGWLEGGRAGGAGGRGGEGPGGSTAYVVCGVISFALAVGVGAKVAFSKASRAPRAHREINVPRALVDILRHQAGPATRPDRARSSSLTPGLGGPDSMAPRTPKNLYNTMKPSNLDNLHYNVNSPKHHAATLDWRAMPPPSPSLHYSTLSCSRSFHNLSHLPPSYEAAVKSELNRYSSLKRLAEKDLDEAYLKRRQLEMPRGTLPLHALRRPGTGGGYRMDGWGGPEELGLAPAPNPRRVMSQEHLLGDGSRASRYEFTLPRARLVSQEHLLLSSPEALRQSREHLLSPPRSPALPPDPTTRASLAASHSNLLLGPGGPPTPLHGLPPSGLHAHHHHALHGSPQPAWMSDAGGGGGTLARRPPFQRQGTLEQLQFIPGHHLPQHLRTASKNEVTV
The experiment can be described thus: co-IP; Flag-Shisa7 co-expressed with a glutamate receptor subunit in HEK293 cells; lysis in 1% Triton X-100, 150 mM NaCl, 25 mM HEPES pH 7.4; anti-Flag antibody overnight, Protein A/G agarose beads, four washes; immunoblot.

“GluA3 (homomeric receptor expressed in HEK293 cells) (from UniProt Q9Z2W9 23-888)”: the binding entry is “binds”.

With “GluK2 (expressed in HEK293 cells) (from UniProt P39087 32-908) (receptor)”, the binding result is reported as “binds weakly”.
